Laboratory results from patent US20100104624A1, “COMBINATION THERAPY USING PHOSPHODIESTERASE INHIBITORS” (priority 2008, published 2010).
Where a name gives a salt, the structure may show the parent alone. At least one structure is not confirmed: it was looked up by name or label, or the drawing left a doubt.

System: patient
Experiment: Patient case reports: erection / sexual function
Type: in vivo

SMILES | effect on erection (Example 4: Clalis taken with cafergot 1 mg) | sexual function despite headache (Example 2: patient without erectile dysfunction, Viagra alone) | effect on erection (Example 3: Viagra taken with 5 mg rizatriptan, patient with difficulty sustaining an erection)
CN1CC(=O)N2[C@H](c3ccc4c(c3)OCO4)c3[nH]c4ccccc4c3C[C@@H]2C1=O [Clalis, tadalafil] | barely able to maintain an erection, but this was an improvement over all other recent attempts |  | 
CCCc1nn(C)c2c(=O)[nH]c(-c3cc(S(=O)(=O)N4CCN(C)CC4)ccc3OCC)nc12 [Viagra, sildenafil citrate] |  | still able to have sex | seemed to prolong their erection
